Data published in the supplement of paper PMC7661543.
The effect of the compound repeats well; differences between the knockouts mostly do not.

Tested on: SKBR3
Assay: relative cell number vs DMSO control (72 h) (% of DMSO); higher = less growth inhibition (more cells)
Description: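 QMAP-Seq: a pool of 5 breast cancer cell lines (ZR-75-1, SKBR3, HCC-38, MDA-MB-231, BT-20), each carrying 12 doxycycline-inducible Cas9 sgRNA perturbations (11 knockouts plus non-targeting sgNT), was treated with compounds for 72 h at four 10-fold doses (10 nM-10 uM or 1 nM-1 uM range). Barcodes were amplified and sequenced, and cell number was interpolated from 293T spike-in standard curves. The result is expressed as % of the median of DMSO wells. Two biological replicates.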

Cc1ccc(C(=O)N(CCCN)[C@@H](c2oc3cc(Cl)ccc3c(=O)c2Cc2ccccc2)C(C)C)cc1
Settings	relative cell number
sgRNA knockout: sgATF3, 10 nM	14.8
sgRNA knockout: sgATF3, 100 nM	12.5
sgRNA knockout: sgATF3, 1000 nM	16.2
sgRNA knockout: sgATF3, 10000 nM	2.95
sgRNA knockout: sgATF4, 10 nM	14.3
sgRNA knockout: sgATF4, 100 nM	11
sgRNA knockout: sgATF4, 1000 nM	18.9
sgRNA knockout: sgATF4, 10000 nM	4.9
sgRNA knockout: sgATF6, 10 nM	11.1
sgRNA knockout: sgATF6, 100 nM	8.92
sgRNA knockout: sgATF6, 1000 nM	17.6
sgRNA knockout: sgATF6, 10000 nM	5.11
sgRNA knockout: sgATG7, 10 nM	16.2
sgRNA knockout: sgATG7, 100 nM	12.8
sgRNA knockout: sgATG7, 1000 nM	14.1
sgRNA knockout: sgATG7, 10000 nM	5.35
sgRNA knockout: sgERN1, 10 nM	9.57
sgRNA knockout: sgERN1, 100 nM	7.6
sgRNA knockout: sgERN1, 1000 nM	14.9
sgRNA knockout: sgERN1, 10000 nM	10.7
sgRNA knockout: sgHSF1, 10 nM	13.6
sgRNA knockout: sgHSF1, 100 nM	9.38
sgRNA knockout: sgHSF1, 1000 nM	15.4
sgRNA knockout: sgHSF1, 10000 nM	4.73
sgRNA knockout: sgHSF2, 10 nM	15.5
sgRNA knockout: sgHSF2, 100 nM	9.95
sgRNA knockout: sgHSF2, 1000 nM	18.8
sgRNA knockout: sgHSF2, 10000 nM	7.54
sgRNA knockout: sgKEAP1, 10 nM	12.2
sgRNA knockout: sgKEAP1, 100 nM	9.18
sgRNA knockout: sgKEAP1, 1000 nM	14
sgRNA knockout: sgKEAP1, 10000 nM	6.03
sgRNA knockout: sgNFE2L2, 10 nM	11.9
sgRNA knockout: sgNFE2L2, 100 nM	13.6
sgRNA knockout: sgNFE2L2, 1000 nM	14.8
sgRNA knockout: sgNFE2L2, 10000 nM	5.6
sgRNA knockout: sgSLC35F2, 10 nM	15.2
sgRNA knockout: sgSLC35F2, 100 nM	8.92
sgRNA knockout: sgSLC35F2, 1000 nM	23.4
sgRNA knockout: sgSLC35F2, 10000 nM	5.24
sgRNA knockout: sgXBP1, 10 nM	11.6
sgRNA knockout: sgXBP1, 100 nM	12.2
sgRNA knockout: sgXBP1, 1000 nM	15.2
sgRNA knockout: sgXBP1, 10000 nM	5.27

c1ccc2c(Oc3nc(Nc4ccc(N5CCOCC5)cc4)c4ncn(C5CCCCC5)c4n3)cccc2c1 [Purmorphamine]
Settings	relative cell number
sgRNA knockout: sgATF3, 10 nM	110
sgRNA knockout: sgATF3, 100 nM	97.4
sgRNA knockout: sgATF3, 1000 nM	102
sgRNA knockout: sgATF3, 10000 nM	80.9
sgRNA knockout: sgATF4, 10 nM	90.6
sgRNA knockout: sgATF4, 100 nM	114
sgRNA knockout: sgATF4, 1000 nM	89
sgRNA knockout: sgATF4, 10000 nM	47.5
sgRNA knockout: sgATF6, 10 nM	113
sgRNA knockout: sgATF6, 100 nM	97.2
sgRNA knockout: sgATF6, 1000 nM	92.6
sgRNA knockout: sgATF6, 10000 nM	59.6
sgRNA knockout: sgATG7, 10 nM	92.4
sgRNA knockout: sgATG7, 100 nM	91.7
sgRNA knockout: sgATG7, 1000 nM	107
sgRNA knockout: sgATG7, 10000 nM	84.8
sgRNA knockout: sgERN1, 10 nM	85.7
sgRNA knockout: sgERN1, 100 nM	73.4
sgRNA knockout: sgERN1, 1000 nM	87.9
sgRNA knockout: sgERN1, 10000 nM	53.3
sgRNA knockout: sgHSF1, 10 nM	77.9
sgRNA knockout: sgHSF1, 100 nM	113
sgRNA knockout: sgHSF1, 1000 nM	86.9
sgRNA knockout: sgHSF1, 10000 nM	67.4
sgRNA knockout: sgHSF2, 10 nM	88
sgRNA knockout: sgHSF2, 100 nM	98.8
sgRNA knockout: sgHSF2, 1000 nM	75.5
sgRNA knockout: sgHSF2, 10000 nM	57.6
sgRNA knockout: sgKEAP1, 10 nM	85.1
sgRNA knockout: sgKEAP1, 100 nM	75.4
sgRNA knockout: sgKEAP1, 1000 nM	84.8
sgRNA knockout: sgKEAP1, 10000 nM	68
sgRNA knockout: sgNFE2L2, 10 nM	81.2
sgRNA knockout: sgNFE2L2, 100 nM	93.3
sgRNA knockout: sgNFE2L2, 1000 nM	87.9
sgRNA knockout: sgNFE2L2, 10000 nM	70.3
sgRNA knockout: sgSLC35F2, 10 nM	82.5
sgRNA knockout: sgSLC35F2, 100 nM	84.1
sgRNA knockout: sgSLC35F2, 1000 nM	91.5
sgRNA knockout: sgSLC35F2, 10000 nM	71.9
sgRNA knockout: sgXBP1, 10 nM	87.5
sgRNA knockout: sgXBP1, 100 nM	102
sgRNA knockout: sgXBP1, 1000 nM	108
sgRNA knockout: sgXBP1, 10000 nM	61

CC(C)(C#N)c1cc(Cn2cncn2)cc(C(C)(C)C#N)c1 [Anastrozole]
Settings	relative cell number
sgRNA knockout: sgATF3, 1 nM	131
sgRNA knockout: sgATF3, 10 nM	121
sgRNA knockout: sgATF3, 100 nM	137
sgRNA knockout: sgATF3, 1000 nM	119
sgRNA knockout: sgATF4, 1 nM	112
sgRNA knockout: sgATF4, 10 nM	101
sgRNA knockout: sgATF4, 100 nM	102
sgRNA knockout: sgATF4, 1000 nM	93.6
sgRNA knockout: sgATF6, 1 nM	107
sgRNA knockout: sgATF6, 10 nM	102
sgRNA knockout: sgATF6, 100 nM	108
sgRNA knockout: sgATF6, 1000 nM	102
sgRNA knockout: sgATG7, 1 nM	120
sgRNA knockout: sgATG7, 10 nM	85.3
sgRNA knockout: sgATG7, 100 nM	120
sgRNA knockout: sgATG7, 1000 nM	104
sgRNA knockout: sgERN1, 1 nM	99.3
sgRNA knockout: sgERN1, 10 nM	110
sgRNA knockout: sgERN1, 100 nM	122
sgRNA knockout: sgERN1, 1000 nM	89.3
sgRNA knockout: sgHSF1, 1 nM	117
sgRNA knockout: sgHSF1, 10 nM	119
sgRNA knockout: sgHSF1, 100 nM	111.3
sgRNA knockout: sgHSF1, 1000 nM	105
sgRNA knockout: sgHSF2, 1 nM	102
sgRNA knockout: sgHSF2, 10 nM	92.4
sgRNA knockout: sgHSF2, 100 nM	102
sgRNA knockout: sgHSF2, 1000 nM	98.4
sgRNA knockout: sgKEAP1, 1 nM	121
sgRNA knockout: sgKEAP1, 10 nM	80.6
sgRNA knockout: sgKEAP1, 100 nM	102
sgRNA knockout: sgKEAP1, 1000 nM	88.9
sgRNA knockout: sgNFE2L2, 1 nM	109
sgRNA knockout: sgNFE2L2, 10 nM	95.2
sgRNA knockout: sgNFE2L2, 100 nM	103
sgRNA knockout: sgNFE2L2, 1000 nM	90.5
sgRNA knockout: sgSLC35F2, 1 nM	108
sgRNA knockout: sgSLC35F2, 10 nM	104
sgRNA knockout: sgSLC35F2, 100 nM	107
sgRNA knockout: sgSLC35F2, 1000 nM	76.4
sgRNA knockout: sgXBP1, 1 nM	149
sgRNA knockout: sgXBP1, 10 nM	110
sgRNA knockout: sgXBP1, 100 nM	127
sgRNA knockout: sgXBP1, 1000 nM	93.4
